Data from paper PMC8788068.
No constants are given. Whether binding was seen depends on the method and setting. In cells and extracts the contact can be indirect. Some entries that bind do so weakly or less than the wild type.

Amino acid sequences for entries named in this document (tags omitted).
UniProt P15924: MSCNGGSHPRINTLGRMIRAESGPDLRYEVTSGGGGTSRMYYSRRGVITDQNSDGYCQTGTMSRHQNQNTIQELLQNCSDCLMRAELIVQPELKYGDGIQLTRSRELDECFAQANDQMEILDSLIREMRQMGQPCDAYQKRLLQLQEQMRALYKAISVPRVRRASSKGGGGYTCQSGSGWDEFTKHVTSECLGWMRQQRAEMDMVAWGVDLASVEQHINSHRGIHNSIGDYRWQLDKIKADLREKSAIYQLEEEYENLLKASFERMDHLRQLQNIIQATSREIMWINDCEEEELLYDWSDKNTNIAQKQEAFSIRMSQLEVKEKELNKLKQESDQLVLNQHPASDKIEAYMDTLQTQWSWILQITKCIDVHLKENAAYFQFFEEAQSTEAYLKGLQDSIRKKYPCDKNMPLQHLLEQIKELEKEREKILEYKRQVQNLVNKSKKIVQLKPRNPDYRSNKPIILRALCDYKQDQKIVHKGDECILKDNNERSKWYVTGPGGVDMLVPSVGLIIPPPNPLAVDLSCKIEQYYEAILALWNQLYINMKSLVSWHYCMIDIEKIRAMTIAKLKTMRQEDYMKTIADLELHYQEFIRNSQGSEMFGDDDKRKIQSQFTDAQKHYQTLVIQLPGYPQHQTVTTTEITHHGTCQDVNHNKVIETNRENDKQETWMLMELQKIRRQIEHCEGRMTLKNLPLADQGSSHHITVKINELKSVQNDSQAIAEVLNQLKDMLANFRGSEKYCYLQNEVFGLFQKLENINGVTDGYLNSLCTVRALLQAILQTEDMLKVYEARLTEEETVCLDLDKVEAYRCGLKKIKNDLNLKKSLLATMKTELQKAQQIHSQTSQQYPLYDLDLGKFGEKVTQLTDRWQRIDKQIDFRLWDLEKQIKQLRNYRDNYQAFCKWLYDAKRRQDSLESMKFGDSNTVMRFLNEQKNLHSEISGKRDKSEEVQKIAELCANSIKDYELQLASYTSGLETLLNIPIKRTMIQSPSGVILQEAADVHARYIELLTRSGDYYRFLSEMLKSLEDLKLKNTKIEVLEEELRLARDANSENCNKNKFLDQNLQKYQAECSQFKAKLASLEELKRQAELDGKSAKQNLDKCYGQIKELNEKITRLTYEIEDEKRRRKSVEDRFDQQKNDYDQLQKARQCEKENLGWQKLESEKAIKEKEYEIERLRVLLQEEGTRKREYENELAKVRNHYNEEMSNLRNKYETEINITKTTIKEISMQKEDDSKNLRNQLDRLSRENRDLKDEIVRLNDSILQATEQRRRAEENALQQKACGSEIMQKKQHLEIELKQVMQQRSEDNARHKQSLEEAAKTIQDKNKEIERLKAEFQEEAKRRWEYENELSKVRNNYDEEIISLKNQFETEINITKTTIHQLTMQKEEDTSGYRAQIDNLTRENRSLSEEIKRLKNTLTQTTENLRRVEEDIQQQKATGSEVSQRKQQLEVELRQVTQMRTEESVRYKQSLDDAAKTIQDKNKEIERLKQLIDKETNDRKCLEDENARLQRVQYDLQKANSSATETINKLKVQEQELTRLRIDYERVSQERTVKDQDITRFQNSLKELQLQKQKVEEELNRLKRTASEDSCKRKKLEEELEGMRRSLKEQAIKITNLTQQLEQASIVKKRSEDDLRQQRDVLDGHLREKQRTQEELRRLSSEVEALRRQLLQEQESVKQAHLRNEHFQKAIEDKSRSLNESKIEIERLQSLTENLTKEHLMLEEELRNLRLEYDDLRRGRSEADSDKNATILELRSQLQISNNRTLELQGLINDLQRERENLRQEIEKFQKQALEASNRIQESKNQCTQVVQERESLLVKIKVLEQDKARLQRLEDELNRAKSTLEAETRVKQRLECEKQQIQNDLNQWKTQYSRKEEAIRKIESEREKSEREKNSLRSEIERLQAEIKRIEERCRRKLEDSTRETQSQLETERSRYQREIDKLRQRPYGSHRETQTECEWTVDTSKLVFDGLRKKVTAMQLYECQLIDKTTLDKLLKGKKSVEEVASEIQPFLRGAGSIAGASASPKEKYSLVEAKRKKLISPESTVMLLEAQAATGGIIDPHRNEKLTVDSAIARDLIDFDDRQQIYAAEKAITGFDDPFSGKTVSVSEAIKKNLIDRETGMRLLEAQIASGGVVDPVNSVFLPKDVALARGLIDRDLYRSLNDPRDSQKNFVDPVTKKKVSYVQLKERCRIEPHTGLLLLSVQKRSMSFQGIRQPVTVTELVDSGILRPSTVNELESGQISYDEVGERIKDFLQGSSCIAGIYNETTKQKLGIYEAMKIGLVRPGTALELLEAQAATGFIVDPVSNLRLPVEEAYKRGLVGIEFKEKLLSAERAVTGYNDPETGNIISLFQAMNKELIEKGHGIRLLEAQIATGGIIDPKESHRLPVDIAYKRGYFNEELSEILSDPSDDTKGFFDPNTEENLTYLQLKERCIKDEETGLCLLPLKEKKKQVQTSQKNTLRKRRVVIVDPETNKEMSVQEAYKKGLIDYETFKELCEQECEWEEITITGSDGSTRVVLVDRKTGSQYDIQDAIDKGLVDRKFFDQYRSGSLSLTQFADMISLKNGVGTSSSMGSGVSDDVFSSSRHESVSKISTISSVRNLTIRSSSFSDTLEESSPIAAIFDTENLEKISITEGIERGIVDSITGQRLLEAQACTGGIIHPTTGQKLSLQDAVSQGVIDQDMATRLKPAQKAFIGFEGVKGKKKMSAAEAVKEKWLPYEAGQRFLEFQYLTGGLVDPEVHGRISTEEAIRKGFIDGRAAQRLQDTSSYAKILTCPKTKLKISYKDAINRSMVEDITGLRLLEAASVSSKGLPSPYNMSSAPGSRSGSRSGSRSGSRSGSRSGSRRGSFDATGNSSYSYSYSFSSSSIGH

How the values were obtained:
Assay in all cases: co-IP; lysates of MCF7-KRT13 and HCC1954-shKRT13 cells; immunoprecipitation with anti-KRT13, anti-PG or anti-DSP antibody, Protein A/G PLUS-Agarose, 4 °C overnight, rinsed four times with cell lysis buffer; western blot
[1] = target: T1, Keratin 13 (KRT13), endogenous in HCC1954 cells (human (endogenous in HCC1954)) (UniProt P13646)
T1 sequence: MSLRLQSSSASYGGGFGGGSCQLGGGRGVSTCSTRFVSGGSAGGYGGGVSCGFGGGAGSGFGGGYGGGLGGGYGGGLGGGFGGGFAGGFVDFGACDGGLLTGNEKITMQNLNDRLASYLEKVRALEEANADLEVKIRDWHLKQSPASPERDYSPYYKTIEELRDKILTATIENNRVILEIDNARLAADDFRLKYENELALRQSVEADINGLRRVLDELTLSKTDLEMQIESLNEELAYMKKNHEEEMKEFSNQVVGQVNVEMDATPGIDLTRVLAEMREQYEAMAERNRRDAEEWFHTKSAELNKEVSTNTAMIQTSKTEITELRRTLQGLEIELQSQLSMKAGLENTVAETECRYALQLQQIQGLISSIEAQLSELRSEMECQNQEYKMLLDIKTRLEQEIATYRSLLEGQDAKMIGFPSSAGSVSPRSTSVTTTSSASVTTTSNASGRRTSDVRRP

[2] = target: T2, Keratin 13 (KRT13), overexpressed in MCF7 cells (MCF7-KRT13) (human) (UniProt P13646)
T2 sequence: T1 sequence

[3] = target: T3, plakoglobin (PG, γ-catenin) (human (endogenous in MCF7 and HCC1954)) (UniProt P14923)
T3 sequence: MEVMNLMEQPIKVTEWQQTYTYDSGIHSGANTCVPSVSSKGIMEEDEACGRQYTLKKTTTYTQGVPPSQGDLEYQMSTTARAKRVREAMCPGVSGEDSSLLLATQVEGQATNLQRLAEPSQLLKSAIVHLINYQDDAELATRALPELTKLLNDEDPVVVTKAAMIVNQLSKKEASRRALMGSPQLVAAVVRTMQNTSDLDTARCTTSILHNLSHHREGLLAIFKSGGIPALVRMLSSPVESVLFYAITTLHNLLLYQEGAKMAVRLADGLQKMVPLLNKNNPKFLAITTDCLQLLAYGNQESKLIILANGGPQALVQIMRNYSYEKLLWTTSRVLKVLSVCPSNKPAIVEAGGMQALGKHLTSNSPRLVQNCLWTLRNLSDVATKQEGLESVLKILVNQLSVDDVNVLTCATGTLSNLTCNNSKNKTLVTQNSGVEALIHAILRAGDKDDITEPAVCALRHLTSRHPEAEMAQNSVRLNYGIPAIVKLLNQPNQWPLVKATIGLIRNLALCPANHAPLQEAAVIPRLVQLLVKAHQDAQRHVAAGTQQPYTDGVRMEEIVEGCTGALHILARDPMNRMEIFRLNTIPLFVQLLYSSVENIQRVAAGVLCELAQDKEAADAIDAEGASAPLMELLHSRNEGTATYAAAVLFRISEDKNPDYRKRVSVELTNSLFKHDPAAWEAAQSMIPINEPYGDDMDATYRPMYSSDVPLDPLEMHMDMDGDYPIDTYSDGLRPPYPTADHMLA

binding [1]: binds
binding [2]: binds
binding [3]: binds
Substance: desmoplakin (DSP) (from UniProt P15924 1-2871)
